Experiment: peptide synthesis

Substance: Boc-L-valyl-(2R, 3S)-3-amino-2-hydroxy-pentanoyl-D-leucyl-L-valine benzyl ester
- step yield (coupling step): 82.8%

Substance: Z-L-valyl-L-valyl-(2R, 3S)-3-amino-2-hydroxy-pentanoyl-D-leucyl-L-valine benzyl ester
- step yield (coupling step): 79.7%

Substance: Z-L-valyl-L-valyl-(3S)-3-amino-2-oxo-pentanoyl-D-leucyl-L-valine benzyl ester
- step yield (late stage modification step): 58.6%

Substance: poststatin(L-valyl-L-valyl-(3S)-3-amino-2-oxo-pentanoyl-D-leucyl-L-valyl)
- difficulty met (late stage modification step): separated from the unreacted material and a partially epimerized substance
- step yield (late stage modification step): 21.7%

Reference: patent publication US5359138A (Zaidan Hojin Biseibutsu Kagaku Kenkyu KaI, priority 1989, dated 1994)
